According to US11635429B2 (priority 2019, dated 2023):
Some results were stated once for a whole list of compounds, not compound by compound. At least one compound was matched to its structure with a doubt left.

Test system: anti-diacetoxyscirpenol monoclonal antibody secreted by hybridoma cell strain DAS5G11E7
Format: binding, mouse

Compound | Cross reactivity with other mycotoxins
HT-2 toxin | less than 0.01%
3-acetyldeoxynivalenol [3-acetyl-DON] | less than 0.01%
CC1=CC2O[C@@H]3[C@H](O)C[C@](C)(C2(CO)C(O)C1=O)[C@]31CO1 (stereo partly shown) [DON, vomitoxin] | less than 0.01%
C[C@@H]1Cc2c(Cl)cc(C(=O)N[C@@H](Cc3ccccc3)C(=O)O)c(O)c2C(=O)O1 [OTA, ochratoxin] | less than 0.01%
